Test results: the supplement of paper PMC12764529
± gives the half width of the 95% confidence interval. The two proteases of the assay disagree for many of these sequences.

Legend:
[1] = folding stability dG unfold from trypsin proteolysis; higher = more stable
Method in brief: (§1)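 Unfolding free energy was derived, per protease or combined, against a sequence-predicted unfolded-state K50 and a shared folded-state K50, starting from K50 inferred by Bayesian fitting of sequencing counts. Digestion with trypsin and chymotrypsin was carried out on designed mini-proteins under 80 residues without cysteine in a PA-tagged cDNA display construct. Only designs with AlphaFold2 dimer inter-PAE above 15 were kept.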

[2] = folding stability dG unfold from chymotrypsin proteolysis; higher = more stable
Method in brief: as §1

[3] = folding stability dG unfold (combined trypsin and chymotrypsin); higher = more stable
Method in brief: as §1

| Sequence | folding stability dG unfold [1] [kcal/mol] | folding stability dG unfold [2] [kcal/mol] | folding stability dG unfold [3] [kcal/mol] |
| --- | --- | --- | --- |
| SAGGSAGGSAGGSAPPKVEIEVTVLVKDEDGRLYVFKAKATFDLETNELTVEVEVYELPSAGGSAGGSAGGS [r4_445_TrROS_Hall] | 3.22 ± 0.39 | 4.79 ± 0.13 | 4.66 ± 0.35 |
| SKKVKIVSIEFDKETGTITIKIKLEDGTTYTLTINPDGTVTITNKDTGKTITITFVDGKLVITISDDVKPSA [r9_233_TrROS_Hall] | 3.22 ± 0.1 | 5.25 ± 0.12 | 5.23 ± 0.29 |
| SAGGSAGGSMYYLVKVKRKDGKEETFVFELPEPAKIEDLLPPELEVVEIKPFASKEEALKAAKSAGGSAGGS [r20_18_TrMRF] | 2.41 ± 0.052 | 5.01 ± 0.059 | 4.78 ± 0.09 |
| SAMMVYKVRIVVKFKEGEKEIELEIEAETLEELLEEIRKKLGLEEVEIVKIEVEPVPSEEELKKLEEKKSAG [r14_852_TrROS_Hall] | 1.88 ± 0.036 | 4.74 ± 0.12 | 4.36 ± 0.15 |
| SAGGSAGGSAGGAAPPGIEVRVFATRTPDGTVRFVAVVTLPDGTPFVFEATLPVHPDAVFSAGGSAGGSAGG [r7_610_TrMRF] | -0.358 ± 0.51 | 2.86 ± 0.038 | 2.27 ± 0.12 |
| SAGGSAGGSAGGGPPTFILKTEVETFTLKKVSKSGDKLVFSESEVTVVTVTLVPENDAPSAGGSAGGSAGGS [r10_300_TrMRF] | 2.69 ± 0.11 | 4.9 ± 0.46 | 4.41 ± 0.37 |
| SASIVVPLAELEALVAAVPGLAAARDPATGLLTLTDPATGARTLVTVTTDPNDPNVVTVEVTTTPLPPASAG [r14_604_JUSTAS] | -0.478 ± 0.36 | 1.89 ± 0.048 | 1.21 ± 0.18 |
| SAGMELVEVTYLPNGTYVVTVKEGSKTTSKTVAPGETFEVPGGLRITVVEPGKYTVSPIPPGPVDVRRSAGG [r19_17_JUSTAS] | -1.16 ± 0.21 | 1.48 ± 0.026 | 0.982 ± 0.032 |
| SEEEIYVVEIKVKVKNENGEERTFTISVPLEEMTEEELRELLRELFPDVEEVEIEVKVTPIKLSEEEIEKSA [r9_841_TrROS_Hall] | 1.59 ± 0.1 | 4.08 ± 0.16 | 3.48 ± 0.28 |
| SAGGSAGGKKIKIEIIYDKENNKLYIYVVDENTKKVYRYEFNKNGKLIKVEPVKEVKPGEVIPLSAGGSAGG [r6_148_TrROS_Hall] | 1.96 ± 0.15 | 2.49 ± 0.16 | 2.32 ± 0.22 |
| SAGGSAGGRLRFRTREEAERAARRLREAGYEVRVEVEERDGELTVTIEIRPRPPPPPVVVLPGRSAGGSAGG [r6_181_TrROS_Hall] | 0.593 ± 0.24 | 4.05 ± 0.11 | 3.52 ± 0.26 |
| SAGGSAGGSMELVIPKEEVEKMSEEVVKKIKELAKKANISISETEDSLVIPIKKVSEKVIKELSAGGSAGGS [r12_945_JUSTAS] | -0.325 ± 0.075 | 0.497 ± 0.045 | 0.232 ± 0.1 |
| SAGKEKKPVKTVTITLTLTGPDGSTYTLTLTLTVKPGQTVTITFPNGFKLTITVNEDGSITITLEKLPDSAG [r5_168_TrROS_Hall] | 2.69 ± 0.16 | 5.65 ± 0.25 | 5.05 ± 0.45 |
| SAGGSAGGSAGGDDDWRIMINIEIWPYPNYVRIRFPIMIIPPDGKLIGSVEVTFWIPANDSAGGSAGGSAGG [r7_812_TrROS] | 3.2 ± 0.18 | 3.84 ± 0.37 | 3.7 ± 0.38 |
| SAGGSAGGSMIIIVKLPNGEELPIEVEGEEEAEKIAEEIVKALIEKGITPVSVEIRPIKPEEGSAGGSAGGS [r12_301_TrMRF] | 3.13 ± 0.13 | 2.28 ± 0.17 | 2.97 ± 0.21 |
| SAGGMTAEELKKAIEENPGETYKVTIYRREKGPDGKVKKEEITVTKEELDALLASLPPGAVVTVEKVSAGGS [r16_116_TrROS_Hall] | 1.54 ± 0.041 | 4.19 ± 0.073 | 3.67 ± 0.082 |
| SAGEEIAKRLAEELKEKGYEVEVKVTVEYDEETGEVTITIEIKVKPKPAPPVKIEKKLEGMSEEEKKALSAG [r5_413_TrROS_Hall] | 0.113 ± 0.12 | 0.137 ± 0.084 | 0.187 ± 0.29 |

Part of the list above, as labelled records:
SAGMELVEVTYLPNGTYVVTVKEGSKTTSKTVAPGETFEVPGGLRITVVEPGKYTVSPIPPGPVDVRRSAGG [r19_17_JUSTAS]
  folding stability dG unfold [1] [kcal/mol]: -1.16 ± 0.21
  folding stability dG unfold [2] [kcal/mol]: 1.48 ± 0.026
  folding stability dG unfold [3] [kcal/mol]: 0.982 ± 0.032
SEEEIYVVEIKVKVKNENGEERTFTISVPLEEMTEEELRELLRELFPDVEEVEIEVKVTPIKLSEEEIEKSA [r9_841_TrROS_Hall]
  folding stability dG unfold [1] [kcal/mol]: 1.59 ± 0.1
  folding stability dG unfold [2] [kcal/mol]: 4.08 ± 0.16
  folding stability dG unfold [3] [kcal/mol]: 3.48 ± 0.28
